{"source": "paper PMC3871824", "key": {"[1]": {"biological_target": "T1, SbABI4 (rABI4) (Sorghum bicolor (inbred line IS9530)) (UniProt A0A1B6P7N1)", "experiment": "EMSA", "conditions": "25 mM Tris-HCl pH 7.4, 30 mM KCl, 3 mM MgCl2, 0.5 mM EDTA, 14 mM 2-mercaptoethanol, 1 mM DTT, 10% glycerol, 0.05% NP-40, 10 ug/ml BSA, recombinant protein, protein details: C-terminal His (pET24a), label: 5'-biotin on strand 1"}, "[2]": {"biological_target": "T2, SbABI5 (rABI5) (Sorghum bicolor (inbred line IS9530)) (UniProt C5XSV4)", "T2 sequence (looked up, limits assumed)": "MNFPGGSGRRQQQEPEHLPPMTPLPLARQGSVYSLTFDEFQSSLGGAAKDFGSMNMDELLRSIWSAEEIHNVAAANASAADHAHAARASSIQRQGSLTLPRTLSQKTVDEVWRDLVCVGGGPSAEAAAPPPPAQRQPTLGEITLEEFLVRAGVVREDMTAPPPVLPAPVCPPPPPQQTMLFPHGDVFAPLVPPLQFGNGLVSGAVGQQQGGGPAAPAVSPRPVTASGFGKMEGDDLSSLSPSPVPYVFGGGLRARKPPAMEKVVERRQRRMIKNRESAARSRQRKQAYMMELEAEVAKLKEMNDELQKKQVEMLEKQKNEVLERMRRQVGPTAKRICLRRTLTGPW", "experiment": "EMSA", "conditions": "25 mM Tris-HCl pH 7.4, 30 mM KCl, 3 mM MgCl2, 0.5 mM EDTA, 14 mM 2-mercaptoethanol, 1 mM DTT, 10% glycerol, 0.05% NP-40, 10 ug/ml BSA, recombinant protein, protein details: C-terminal His (pET24a), label: 5'-biotin on strand 1"}, "[3]": {"biological_target": "T1, SbABI4 (rABI4) (Sorghum bicolor (inbred line IS9530))", "experiment": "competition with a labelled probe", "conditions": "200-600 ng vs 40 ng N1, full displacement; 25 mM Tris-HCl pH 7.4, 30 mM KCl, 3 mM MgCl2, 0.5 mM EDTA, 14 mM 2-mercaptoethanol, 1 mM DTT, 10% glycerol, 0.05% NP-40, 10 ug/ml BSA, 50 ug/ml salmon sperm DNA; recombinant protein; protein details: C-terminal His (pET24a)"}, "[4]": {"biological_target": "T2, SbABI5 (rABI5) (Sorghum bicolor (inbred line IS9530))", "experiment": "competition with a labelled probe", "conditions": "200-600 ng vs 40 ng N1, full displacement; 25 mM Tris-HCl pH 7.4, 30 mM KCl, 3 mM MgCl2, 0.5 mM EDTA, 14 mM 2-mercaptoethanol, 1 mM DTT, 10% glycerol, 0.05% NP-40, 10 ug/ml BSA, 50 ug/ml salmon sperm DNA; recombinant protein; protein details: C-terminal His (pET24a)"}, "[5]": {"conditions": "two complexes, 50 ug/ml salmon sperm DNA"}, "[6]": {"conditions": "only traces of complex, 50 ug/ml salmon sperm DNA"}}, "note": "For some assays here: Weaker means in comparison with the reference protein, sequence or condition of that experiment. For some assays here: Protein sequences can lack the tags named with them."}
{"sequence": "GGGCGCCGTGGGAAAACTGCTATTGGCCGGCGTGCCATCGCCTCGTATCGTATGCGTCTCCCATGGAGCCATGCATGCAGCGCGGCGGGCCGACCTGCCACCGGTGGATCGCGTCCGGACAATTCGCGCCC (double strand) [SbGA2ox3 probe b (mutated ABRE)]", "values": [{"measurement": "binding result", "setting": "[1]; 50 ug/ml salmon sperm …", "value": "binds more weakly"}, {"measurement": "binding result", "setting": "[2]; 50 ug/ml salmon sperm …", "value": "binds more weakly"}]}
{"sequence": "GGGCGCCGTGGGAAAACTGCTATTGGCCGGCGTGCCATCGCCTCGTATCGTATGCGTCTCCCATGGAGCCATGCATGCAGCGCGGCGGGCCGACCTGCCACCGGTGGATCGCGTCCGGACACGTCGCGCCCCGGACCCCGACTGCCCTGGCTCCATCGGCACCGTGCACCCAAAGCGATCCCACCCCCGATGCATCCTTTTCGTCTCCCTGTCAGCTGGGTCCCATCCAGCCAGGTGCCGCC (double strand) [SbGA2ox3 242 bp unlabelled specific competitor]", "values": [{"measurement": "binding result", "setting": "[3]", "value": "binds"}, {"measurement": "binding result", "setting": "[4]", "value": "binds"}]}
{"sequence": "GGGCGCCGTGGGAAAACTGCTATTGGCCGGCGTGCCATCGCCTCGTATCGTATGCGTCTCCCATGGAGCCATGCATGCAGCGCGGCGGGCCGACCTGCCACCGGTGGATCGCGTCCGGACACGTCGCGCCCCGGACCCCGACTGCCCTGGCTCCATCGGCACCGTGCACCCAAAGCGATCCCACCCCCGATGCATCCTTTTCGTCTCCCTGTCAGCTGGGTCCCATCCAGCCAGGTGCCGCC (double strand) [SbGA2ox3 promoter probe 242 bp]", "values": [{"measurement": "binding result", "setting": "[1]; [5]", "value": "binds"}, {"measurement": "binding result", "setting": "[2]; [5]", "value": "binds"}]}
{"sequence": "GGGCGCCGTGGGAAAACTGCTATTGGCCGGCGTGCCATCGCCTCGTATCGTATGCGTCTCCCATGGAGCCATGCATGCAGCGCGGCGGGCCGACCTGCTTCCGGTGGATCGCGT (double strand) [SbGA2ox3 probe c (mutated CE, no ABRE)]", "values": [{"measurement": "binding result", "setting": "[1]; [6]", "value": "binds more weakly"}, {"measurement": "binding result", "setting": "[2]; [6]", "value": "binds more weakly"}]}
